Test results as given in PubChem BioAssay AID248 (DTP/NCI, 2004).
The list shows only some results of the screen, not a fair sample: it gathers tests that were run many times, whatever their T/C, doses with no T/C, and many T/C values between a quarter and a half above the control. Other doses and runs of a compound stand elsewhere. T/C: endpoint of the treated group in % of that of the vehicle group. Some entries give survivors of the animals treated and no T/C: the source files T/C as zero there, which appears to mark a toxic dose or a test without result, not a measured value. Some doses without a T/C left all or most animals alive at the check, yet need not have been tolerated: the source hardly ever lists a survival T/C far under the control, and the zero likely stands for such cases as well. Counts of survivors are from the toxicity check (mostly the fifth day) where no day follows; animals may have died later. Schedule codes are those of the source, taken here to give the interval after Q, in days (D) or hours (H), and the number of doses after X. Some schedule codes hold Z or #, which are not explained here. Some doses were run more than once; the values are given in rising order. For survival time, this PubChem deposit counts one and a half times the control or more as active, and values a quarter to a half above the control carry no call in these data; other NCI protocols may use other cut-offs. Some T/C values carry the count of animals alive at the toxicity check (mostly the fifth day); where none is given, no animal had died by that day.

Test system: L1210 leukemia ip in BDF1 mice, survival T/C
Experiment: NCI In Vivo Anticancer Drug Screen. Data for tumor model L1210 Leukemia (intraperitoneal) in B6D2F1 (BDF1) mice
Conditions: higher T/C = longer survival
[1] = T/C endpoint: mean survival time, dose: 160.0 mg/kg/injection, schedule: Q## X001 (ip), vehicle: saline

`CC[C@](O)(C(=O)O)c1cc2n(c(=O)c1CO)Cc1cc3ccccc3nc1-2` was tested, and the T/C [1] was 136 % of control [5 of 6 alive], the survivor count [1] was 3 of 6 and the survivor count (T/C endpoint: mean survival time, dose: 160.0 mg/kg/injection, schedule: Q## X002 (ip), vehicle: saline) was 2 of 10. For the same compound, the survivor count (T/C endpoint: mean survival time, dose: 160.0 mg/kg/injection, schedule: Q## X008 (ip), vehicle: saline) was 1 of 10, the survivor count (T/C endpoint: mean survival time, dose: 160.0 mg/kg/injection, schedule: Q## X008 (oral), vehicle: water) was 0 of 10 and the survivor count (T/C endpoint: mean survival time, dose: 200.0 mg/kg/injection, schedule: Q01DX001 (ip), vehicle: saline) was 2 of 6. For the same compound, the survivor count (T/C endpoint: mean survival time, dose: 200.0 mg/kg/injection, schedule: Q04DX002 (ip), vehicle: saline) was 1 of 3, the survivor count (T/C endpoint: mean survival time, dose: 320.0 mg/kg/injection, schedule: Q## X001 (ip), vehicle: saline) was 0 of 6 and 2 of 6 and the survivor count (T/C endpoint: mean survival time, dose: 320.0 mg/kg/injection, schedule: Q## X003 (ip), vehicle: saline) was 3 of 10. The survivor count (T/C endpoint: mean survival time, dose: 400.0 mg/kg/injection, schedule: Q04DX002 (ip), vehicle: saline) was 0 of 3, the survivor count (T/C endpoint: mean survival time, dose: 640.0 mg/kg/injection, schedule: Q01DX001 (ip), vehicle: saline) was 5 of 10 and the survivor count (T/C endpoint: mean survival time, dose: 640.0 mg/kg/injection, schedule: Q## X001 (ip), vehicle: saline) was 0 of 6. For the same compound, the T/C (T/C endpoint: mean survival time, dose: 500.0 micrograms/kg/injection, schedule: Q01DX Z (ip), vehicle: saline) was 133 % of control, the T/C (T/C endpoint: median survival time, dose: 5.0 mg/kg/injection, schedule: Q04DX003 (ip), vehicle: saline) was 128 % of control and the T/C (T/C endpoint: median survival time, dose: 6.25 mg/kg/injection, schedule: Q04DX003 (ip), vehicle: saline) was 133 % of control. The T/C (T/C endpoint: median survival time, dose: 10.0 mg/kg/injection, schedule: Q04DX003 (ip), vehicle: saline, evaluated on day 5) was 165 % of control, the T/C (T/C endpoint: median survival time, dose: 10.0 mg/kg/injection, schedule: Q04DX003 (ip), vehicle: saline, evaluated on day 7) was 179 % of control and the T/C (T/C endpoint: median survival time, dose: 10.0 mg/kg/injection, schedule: Q04DX003 (ip), vehicle: saline, evaluated on day 30) was 161 % of control. The T/C (T/C endpoint: median survival time, dose: 10.0 mg/kg/injection, schedule: Q04DX003 (ip), vehicle: saline, evaluated on day 60) was 155 % of control, the T/C (T/C endpoint: median survival time, dose: 18.0 mg/kg/injection, schedule: Q04DX003 (ip), vehicle: saline, evaluated on day 7) was 139 % of control and the T/C (T/C endpoint: median survival time, dose: 18.0 mg/kg/injection, schedule: Q04DX003 (ip), vehicle: saline, evaluated on day 50) was 135 % of control. For the same compound, the T/C (T/C endpoint: median survival time, dose: 20.0 mg/kg/injection, schedule: Q04DX003 (ip), vehicle: saline, evaluated on day 5) was 199 % of control, the T/C (T/C endpoint: median survival time, dose: 20.0 mg/kg/injection, schedule: Q04DX003 (ip), vehicle: saline, evaluated on day 7) was 199 % of control and the T/C (T/C endpoint: median survival time, dose: 20.0 mg/kg/injection, schedule: Q04DX003 (ip), vehicle: saline, evaluated on day 30) was 194 % of control. The T/C (T/C endpoint: median survival time, dose: 20.0 mg/kg/injection, schedule: Q04DX003 (ip), vehicle: saline, evaluated on day 60) was 183 % of control, the T/C (T/C endpoint: median survival time, dose: 30.0 mg/kg/injection, schedule: Q01DX001 (ip), vehicle: saline, evaluated on day 7) was 137 % of control and the T/C (T/C endpoint: median survival time, dose: 30.0 mg/kg/injection, schedule: Q01DX001 (ip), vehicle: saline, evaluated on day 50) was 135 % of control. The T/C (T/C endpoint: median survival time, dose: 30.0 mg/kg/injection, schedule: Q04DX003 (ip), vehicle: saline, evaluated on day 7) was 145 % of control, the T/C (T/C endpoint: median survival time, dose: 30.0 mg/kg/injection, schedule: Q04DX003 (ip), vehicle: saline, evaluated on day 50) was 140 % of control and the T/C (T/C endpoint: median survival time, dose: 40.0 mg/kg/injection, schedule: Q04DX003 (ip), vehicle: saline, evaluated on day 5) was 251 % of control. The T/C (T/C endpoint: median survival time, dose: 40.0 mg/kg/injection, schedule: Q04DX003 (ip), vehicle: saline, evaluated on day 7) was 245 % of control, the T/C (T/C endpoint: median survival time, dose: 40.0 mg/kg/injection, schedule: Q04DX003 (ip), vehicle: saline, evaluated on day 30) was 244 % of control and the T/C (T/C endpoint: median survival time, dose: 40.0 mg/kg/injection, schedule: Q04DX003 (ip), vehicle: saline, evaluated on day 60) was 222 % of control. The T/C (T/C endpoint: median survival time, dose: 50.0 mg/kg/injection, schedule: Q04DX003 (ip), vehicle: saline, evaluated on day 7) was 139 % of control, the T/C (T/C endpoint: median survival time, dose: 50.0 mg/kg/injection, schedule: Q04DX003 (ip), vehicle: saline, evaluated on day 50) was 135 % of control and the T/C (T/C endpoint: median survival time, dose: 50.0 mg/kg/injection, schedule: Q04DX003 (ip), vehicle: saline, evaluated on day 54) was 166 % of control. For the same compound, the T/C (T/C endpoint: median survival time, dose: 50.0 mg/kg/injection, schedule: Q04DX003 (ip), vehicle: saline, evaluated on day 60) was 238 % of control, the T/C (T/C endpoint: median survival time, dose: 80.0 mg/kg/injection, schedule: Q04DX003 (ip), vehicle: saline, evaluated on day 5) was 102 % of control and the T/C (T/C endpoint: median survival time, dose: 80.0 mg/kg/injection, schedule: Q04DX003 (ip), vehicle: saline, evaluated on day 7) was 172 % of control. The T/C (T/C endpoint: median survival time, dose: 80.0 mg/kg/injection, schedule: Q04DX003 (ip), vehicle: saline, evaluated on day 30) was 100 % of control, the T/C (T/C endpoint: median survival time, dose: 80.0 mg/kg/injection, schedule: Q04DX003 (ip), vehicle: saline, evaluated on day 60) was 177 % of control and the T/C (T/C endpoint: median survival time, dose: 83.3 mg/kg/injection, schedule: Q01DX001 (ip), vehicle: saline, evaluated on day 7) was 134 % of control. For the same compound, the T/C (T/C endpoint: median survival time, dose: 83.3 mg/kg/injection, schedule: Q01DX001 (ip), vehicle: saline, evaluated on day 50) was 130 % of control, the T/C (T/C endpoint: median survival time, dose: 148.0 mg/kg/injection, schedule: Q01DX001 (ip), vehicle: saline) was 131 % of control and the survivor count (T/C endpoint: median survival time, dose: 200.0 mg/kg/injection, schedule: Q07DX003 (ip), vehicle: saline) was 1 of 8. For the same compound, the survivor count (T/C endpoint: median survival time, dose: 400.0 mg/kg/injection, schedule: Q07DX003 (ip), vehicle: saline) was 7 of 8.
